PubChem BioAssay AID720505 – Drosophila RNAi Screening Center, 2013
The deposit covers about 20,000 reagents; shown is an unselected part of those that have a named target and a result. In the full data, about 2,100 (10%) got an active call. 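Raw plate signals without normalisation; calls rest on control-based scores that were not deposited; replicate 2 separates called from uncalled poorly.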 A number with no mark means an inactive call. Names joined by + are all predicted targets of the reagent. No sequences are given here. Not stated in the record: the amount of reagent, the time to read-out.

- Aim: 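Genes needed for store-operated calcium entry in fly cells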 (primary screen)
- Cell system: Drosophila S2R+ cells
- Reagents: long dsRNA against Drosophila genes
- Conditions: thapsigargin (2 µM) in calcium-free buffer to empty internal stores, then 2 mM calcium added back
- Detection: 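Fluo-4 signal in 384-well plates read on a FLIPR after thapsigargin (2 µM, calcium-free) store depletion and 2 mM calcium add-back; unnormalised mean endpoint per well; screen run twice, selected wells retested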
- Scale: calcium signal and retest calcium signal: higher = more calcium entry after store depletion
- Call rule: 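About 1500 genes called as lowering calcium entry, by varying amounts, judged against per-plate control wells with STIM1 as positive and Rho1 as negative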
- Calls: active = called as lowering calcium entry; inactive = not called

CG30091 (GeneID 246449) [DRSC21809] scored calcium signal, replicate 1 = 175; calcium signal, replicate 2 = 111.
Knock-down of CG14218 (GeneID 32949) [DRSC19575] resulted in: calcium signal, replicate 1 = 205; calcium signal, replicate 2 = 93.2; retest calcium signal, replicate 1 = 6405; retest calcium signal, replicate 2 = 181.
After knock-down of CG15614 (GeneID 36899) [DRSC06567] the results were calcium signal, replicate 1 = 144; calcium signal, replicate 2 = 159.
For kcc (GeneID 37800) [DRSC04316], the values are calcium signal, replicate 1 = 117; calcium signal, replicate 2 = 84.8.
For kcc (GeneID 37800) [DRSC04516] the deposit lists calcium signal, replicate 1 = 143; calcium signal, replicate 2 = 242.
With knock-down of ana (GeneID 35913) [DRSC07579], the screen gave calcium signal, replicate 1 = 187; calcium signal, replicate 2 = 103.
Depletion of CG15011 (GeneID 38518) [DRSC08464] gave: calcium signal, replicate 1 = 94.1; calcium signal, replicate 2 = 167.
For CG15712 (GeneID 36843) [DRSC06583], the values are calcium signal, replicate 1 = 174; calcium signal, replicate 2 = 130.
CG31740 (GeneID 261618) [DRSC01619] gave calcium signal, replicate 1 = 217; calcium signal, replicate 2 = 99.2.
Depletion of CG9672 (GeneID 32651) [DRSC20201] resulted in: calcium signal, replicate 1 = 121; calcium signal, replicate 2 = 111.
Against Or1a (GeneID 30978) [DRSC18689], the values are calcium signal, replicate 1 = 117; calcium signal, replicate 2 = 118.
Knock-down of CG8138 (GeneID 41619) [DRSC16386] gave: calcium signal, replicate 1 = 123; calcium signal, replicate 2 = 135.
Depletion of PNUTS (GeneID 33270) [DRSC00638] came out at: calcium signal, replicate 1 = 126; calcium signal, replicate 2 = 200.
PNUTS (GeneID 33270) [DRSC22136] scored calcium signal, replicate 1 = 94.3; calcium signal, replicate 2 = 168.
CG16789 (GeneID 41154) [DRSC15155] gave calcium signal, replicate 1 = 202; calcium signal, replicate 2 = 136.
Knock-down of Hn (GeneID 38871) [DRSC11184] gave: calcium signal, replicate 1 = 50.4 (active); calcium signal, replicate 2 = 80.
For ND-20L (GeneID 43477) [DRSC15414], the entry reads calcium signal, replicate 1 = 156; calcium signal, replicate 2 = 153.
After knock-down of DUBAI (GeneID 36361) [DRSC07281], the screen gave calcium signal, replicate 1 = 187; calcium signal, replicate 2 = 190.
Depletion of CG10510 (GeneID 40341) [DRSC11614] gave: calcium signal, replicate 1 = 72.6 (active); calcium signal, replicate 2 = 46.2.
Lcch3 (GeneID 32554) [DRSC22175] gave calcium signal, replicate 1 = 91.4; calcium signal, replicate 2 = 235.
Osi1 (GeneID 40752) [DRSC12271] showed calcium signal, replicate 1 = 99.5; calcium signal, replicate 2 = 159.
Depletion of PTPMT1 (GeneID 42807) [DRSC14235] gave: calcium signal, replicate 1 = 139; calcium signal, replicate 2 = 164.
Actbeta (GeneID 43826) [DRSC17217] scored calcium signal, replicate 1 = 105 (active); calcium signal, replicate 2 = 89.1.
Against CG15572 (GeneID 31371) [DRSC18060], the entry reads calcium signal, replicate 1 = 149; calcium signal, replicate 2 = 130.
Xport-A + Xport-B [DRSC15586] scored calcium signal, replicate 1 = 140; calcium signal, replicate 2 = 208.
With knock-down of CG18171 (GeneID 38216) [DRSC08524] the results were calcium signal, replicate 1 = 62.1; calcium signal, replicate 2 = 85.7.
Knock-down of CSN6 (GeneID 42661) [DRSC16593] gave: calcium signal, replicate 1 = 121; calcium signal, replicate 2 = 76.7.
Elp1 (GeneID 41399) [DRSC14250] showed calcium signal, replicate 1 = 80; calcium signal, replicate 2 = 103.
Mtr4 (GeneID 48782) [DRSC03560] showed calcium signal, replicate 1 = 66.6 (active); calcium signal, replicate 2 = 94.1.
U2A (GeneID 35713) [DRSC06445] gave calcium signal, replicate 1 = 109; calcium signal, replicate 2 = 115.
After knock-down of ThrRS (GeneID 45784) [DRSC02843], the screen gave calcium signal, replicate 1 = 100; calcium signal, replicate 2 = 110.
Silencing of Ag5r (GeneID 44631) [DRSC19327] resulted in: calcium signal, replicate 1 = 140; calcium signal, replicate 2 = 97.8.
With knock-down of CG16989 (GeneID 31026) [DRSC18535] the results were calcium signal, replicate 1 = 84.2; calcium signal, replicate 2 = 139.
Against Lis-1 (GeneID 36791) [DRSC07459], the entry reads calcium signal, replicate 1 = 115; calcium signal, replicate 2 = 145.
After knock-down of CG17141 (GeneID 42697) [DRSC15178], the record shows calcium signal, replicate 1 = 154; calcium signal, replicate 2 = 153.

Looked up above:
Value for CG16989 (GeneID 31026) [DRSC18535] in “calcium signal, replicate 2”: 139
For “calcium signal, replicate 1”, CG16789 (GeneID 41154) [DRSC15155] reads 202
